Assay results: publication PMC9356269, “A purified energy-converting hydrogenase from Thermoanaerobacter kivui demonstrates coupled H^+-translocation and reduction in vitro” (The Journal of Biological Chemistry, 2022)

Sequences of proteins named here, by UniProt entry; tags and fusion partners are left off. A change or cut given only in a name is not applied to a line headed by its entry.
UniProt A0A097ATH9: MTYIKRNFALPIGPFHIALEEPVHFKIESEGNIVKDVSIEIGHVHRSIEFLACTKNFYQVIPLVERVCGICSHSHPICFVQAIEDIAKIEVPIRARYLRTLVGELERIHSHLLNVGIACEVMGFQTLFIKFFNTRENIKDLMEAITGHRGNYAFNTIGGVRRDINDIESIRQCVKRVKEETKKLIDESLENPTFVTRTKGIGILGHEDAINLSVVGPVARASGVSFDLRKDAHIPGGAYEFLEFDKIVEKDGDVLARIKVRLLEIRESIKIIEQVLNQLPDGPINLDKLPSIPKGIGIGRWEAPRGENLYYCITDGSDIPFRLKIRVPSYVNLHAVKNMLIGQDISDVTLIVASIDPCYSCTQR
UniProt A0A097ATH4: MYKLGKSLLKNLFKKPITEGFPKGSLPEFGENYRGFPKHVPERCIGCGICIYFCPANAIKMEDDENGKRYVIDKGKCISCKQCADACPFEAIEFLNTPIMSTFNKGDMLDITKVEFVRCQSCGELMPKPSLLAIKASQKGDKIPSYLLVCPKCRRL
UniProt A0A097ATI1: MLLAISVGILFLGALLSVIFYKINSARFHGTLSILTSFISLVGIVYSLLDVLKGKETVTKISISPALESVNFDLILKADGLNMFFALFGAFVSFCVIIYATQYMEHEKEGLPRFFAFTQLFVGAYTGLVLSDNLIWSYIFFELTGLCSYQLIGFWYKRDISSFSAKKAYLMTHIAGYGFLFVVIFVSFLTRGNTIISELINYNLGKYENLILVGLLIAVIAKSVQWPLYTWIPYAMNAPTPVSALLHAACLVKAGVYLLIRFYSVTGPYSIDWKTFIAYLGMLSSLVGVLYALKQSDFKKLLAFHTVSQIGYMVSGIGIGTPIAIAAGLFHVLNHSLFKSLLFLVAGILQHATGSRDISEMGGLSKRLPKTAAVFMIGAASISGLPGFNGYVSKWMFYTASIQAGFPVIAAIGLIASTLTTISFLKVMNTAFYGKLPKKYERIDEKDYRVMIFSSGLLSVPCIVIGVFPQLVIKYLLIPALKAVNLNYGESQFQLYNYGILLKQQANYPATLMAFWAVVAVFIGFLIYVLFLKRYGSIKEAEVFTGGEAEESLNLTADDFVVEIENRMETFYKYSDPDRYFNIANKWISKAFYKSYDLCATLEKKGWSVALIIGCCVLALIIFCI
UniProt A0A097ATF1: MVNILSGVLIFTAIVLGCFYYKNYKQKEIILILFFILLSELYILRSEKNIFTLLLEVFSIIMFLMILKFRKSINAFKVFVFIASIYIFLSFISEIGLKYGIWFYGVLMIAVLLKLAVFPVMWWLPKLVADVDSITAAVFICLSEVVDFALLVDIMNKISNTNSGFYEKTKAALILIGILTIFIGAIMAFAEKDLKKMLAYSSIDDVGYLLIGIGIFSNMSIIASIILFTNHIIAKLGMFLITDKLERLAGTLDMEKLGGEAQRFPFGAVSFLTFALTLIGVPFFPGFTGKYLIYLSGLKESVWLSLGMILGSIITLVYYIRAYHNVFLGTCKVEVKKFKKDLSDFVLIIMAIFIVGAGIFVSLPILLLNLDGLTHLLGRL
UniProt A0A097ATH3: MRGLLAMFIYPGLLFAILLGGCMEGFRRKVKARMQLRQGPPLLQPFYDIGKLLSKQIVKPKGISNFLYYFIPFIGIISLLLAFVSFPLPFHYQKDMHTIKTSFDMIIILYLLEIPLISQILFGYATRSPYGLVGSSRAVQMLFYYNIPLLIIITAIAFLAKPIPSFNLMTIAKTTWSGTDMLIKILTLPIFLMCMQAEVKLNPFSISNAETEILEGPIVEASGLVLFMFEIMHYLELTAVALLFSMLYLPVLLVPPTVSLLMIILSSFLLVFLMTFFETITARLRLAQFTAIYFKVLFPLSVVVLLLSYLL
UniProt A0A097ATJ6: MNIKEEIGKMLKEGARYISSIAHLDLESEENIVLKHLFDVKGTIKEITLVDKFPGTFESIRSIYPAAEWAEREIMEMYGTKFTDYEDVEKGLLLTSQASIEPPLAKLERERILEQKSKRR
UniProt A0A097ATH8: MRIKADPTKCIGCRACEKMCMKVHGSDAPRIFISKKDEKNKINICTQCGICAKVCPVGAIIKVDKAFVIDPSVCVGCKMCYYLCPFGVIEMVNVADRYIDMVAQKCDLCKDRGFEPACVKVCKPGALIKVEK

These substances were tested against T1, His-tagged subunit Ech2C (Thermoanaerobacter kivui) (assay: affinity purification with mass spectrometry; Ech2C-His produced in trans in T. kivui; membranes solubilised with DDM, Ni2+-NTA resin, washed with 30 mM imidazole, eluted with 150 mM imidazole, 0.02% DDM, pH 7.5, anoxic, room temperature; eluate on 12% SDS-PAGE, subunits identified by peptide mass fingerprinting (MALDI-TOF)).
T1 sequence: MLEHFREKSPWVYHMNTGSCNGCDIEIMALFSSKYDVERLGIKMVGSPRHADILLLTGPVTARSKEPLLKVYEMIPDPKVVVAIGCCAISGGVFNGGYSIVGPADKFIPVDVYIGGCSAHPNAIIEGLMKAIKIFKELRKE

Substance	binding
Ech2E (from UniProt A0A097ATH9)	binds
Ech2F (from UniProt A0A097ATH4)	binds
Ech2A1 (from UniProt A0A097ATI1)	binds

Next, values leading:

binding	Substance
binds	Ech2A2 (from UniProt A0A097ATF1)
binds	Ech2B (from UniProt A0A097ATH3)
binds	Ech2D (from UniProt A0A097ATJ6)
binds	HycB2 (from UniProt A0A097ATH8)

No constants are given. Whether binding was seen depends on the method and setting. Binding seen in cells or lysates may run through a third protein. A yes stands for co-enrichment or nearness to the bait. Other partners may have been found. Tags and fused reporters may be left off the sequences shown.
